From patent publication US20200261534A1 (priority 2017, published 2020)

Assay: general procedure: Fmoc solid-phase peptide synthesis; TBTU/DIEA
Conditions: whole synthesis

AXKVVILKXATAYILS
final HPLC purity: 95.11%
